# Values of other authors as cited in patent US7927850B2, “Composition containing trehalose synthase and methods of use thereof” (Academia Sinica, priority 2006, dated 2011).
# Some results were stated once for a whole list of compounds, not compound by compound.
# B1: Pimelobacter trehalose synthase: previously reported trehalose synthase from Pimelobacter sp. R48 (protein, UniProt P72235 1-573, looked up)
# Trehalose synthase: MSIAESTVLGEEPEWFRTAVFYEVLVRSFRDPNAGGTGDFRGLAEKLDYLQWLGVDCLWVPPFFSSPLRDGGYDVADYTGILPEIGTVEDFHAFLDGAHERGIRVIIDFVMNHTSDAHPWFQASRSDPDGPYGDFYVWSDTDELYQDARVIFVDTEPSNWTWDQTRGQYYWHRFFHHQPDLNFDNPKVQDAMLEAMAFWLDMGLDGFRLDAVPYLYERPGTNGENLPETHEMLKRVRRFVDDNYPDRVLLYEANQWPTDVVEYFGPEEREDGTVVGPESHMAFHFPVMPRIFMAVRRESRFPISEIMEQTPAIPEGCQWGIFLRNHDELTLEMVTDEDRDYMWGEYAKDPRMKANIGIRRRLAPLLDNDTNQIELFTALLLSLPGSPVLYYGDEIGMGDNIWLGDRDGVRTPMQRTPDRNVGFSAATPGKLHLPTIQDPVYGYQSVNVEAQLENPSSLLHWTRRMIHIRRQRDAFGLGTFEDLGGSNPAVLSYVRELPGDGGDDVILCVNNLSRFPQPVELDLRKYEGRVPVELIGGVPFPAVGELPYLLTLSGHGFYWFRLTDPDTTGRPVL
# Settings: cited from earlier work
molecule,measurement,value
B1,activity retained at pH below 5.0,lower than 30%
